PubChem BioAssay AID1259405, NCATS | 2018

Purpose: 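Silenced genes that increase secreted GFP made by CHO cells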 (primary screen)
System: Chinese hamster CHO-K1 ovary cells with stable secreted eGFP expression
Knock-down reagent: single siRNA against mouse genes, 0.8 pmol siRNA per well (2 µl of 400 nM stock)
Timing: 3 days
Read-out: 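Percent of the per-plate non-targeting control median for intracellular GFP per well by laser scanning cytometry and for cell viability by ATP luminescence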
Scale: GFP, % of control: higher = more GFP per well, higher productivity; viability (ATP), % of control: higher = more viable cells (more ATP)
Hit rule: 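a knock-down is called active if GFP reaches 120% or more of non-targeting control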
Shown is one part, drawn at random, of about 50,000 reagents tested. About 4,000 of all reagents (8%) count as active. 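Mouse siRNA library applied to hamster cells; one well for each siRNA.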 Reagents against one gene are numbered here. Reagent sequences are not shown.

target gene	reagent no.	GFP, % of control	viability (ATP), % of control	activity call
Esrp2 (GeneID 77411)	1	69	63.7	inactive
Esrp2 (GeneID 77411)	2	88.7	44.7	inactive
Esrp2 (GeneID 77411)	3	41.2	21.1	inactive
Aqp6 (GeneID 11831)	1	87.8	61.6	inactive
Aqp6 (GeneID 11831)	2	78.4	50	inactive
Aqp6 (GeneID 11831)	3	75.7	30.4	inactive
Slain2 (GeneID 75991)	1	53.5	73.6	inactive
Slain2 (GeneID 75991)	2	48.6	58.8	inactive
Slain2 (GeneID 75991)	3	102	107	inactive
Tsr2 (GeneID 69499)	1	74	69	inactive
Tsr2 (GeneID 69499)	2	133	82.2	active
Tsr2 (GeneID 69499)	3	96.9	62.5	inactive
Il17ra (GeneID 16172)	1	63	84.5	inactive
Il17ra (GeneID 16172)	2	86	61.1	inactive
Cox7c (GeneID 12867)	1	138	116	active
Cox7c (GeneID 12867)	2	46.1	48.3	inactive
Cox7c (GeneID 12867)	3	78.9	65.1	inactive
Zscan20 (GeneID 269585)	1	79.8	107	inactive
Zscan20 (GeneID 269585)	2	57.7	76.3	inactive
Zscan20 (GeneID 269585)	3	57.8	70	inactive
Slc26a8 (GeneID 224661)	1	117	79.4	inactive
Slc26a8 (GeneID 224661)	2	95.2	89.1	inactive
Slc26a8 (GeneID 224661)	3	66.3	67.6	inactive
Ralb (GeneID 64143)	1	46	61.8	inactive
Ralb (GeneID 64143)	2	130	118	active
Ralb (GeneID 64143)	3	74.3	62.9	inactive
Chid1 (GeneID 68038)	1	103	67.6	inactive
Chid1 (GeneID 68038)	2	91.7	79.8	inactive
Chid1 (GeneID 68038)	3	114	102	inactive
Oas1g (GeneID 23960)	1	89.9	82.8	inactive
Oas1g (GeneID 23960)	2	80.2	85.4	inactive
Oas1g (GeneID 23960)	3	48.9	59.2	inactive
Mre11a (GeneID 17535)	1	38.4	71.8	inactive
Mre11a (GeneID 17535)	2	78.9	80.9	inactive
Mre11a (GeneID 17535)	3	72.5	70.3	inactive
Zfp473 (GeneID 243963)	1	113	97.4	inactive
Zfp473 (GeneID 243963)	2	77.3	63.1	inactive
Zfp473 (GeneID 243963)	3	91.1	102	inactive
Mtch1 (GeneID 56462)	1	107	91	inactive
Mtch1 (GeneID 56462)	2	108	64.1	inactive
Mtch1 (GeneID 56462)	3	40.9	43.8	inactive
Wdcp (GeneID 238037)	1	41.7	85.6	inactive
Wdcp (GeneID 238037)	2	69.2	104	inactive
Wdcp (GeneID 238037)	3	93.7	114	inactive
Kif9 (GeneID 16578)	1	48.5	64.4	inactive
Kif9 (GeneID 16578)	2	57.1	66.7	inactive
Kif9 (GeneID 16578)	3	119	46.8	inactive
Zcchc10 (GeneID 67966)	1	31.7	32	inactive
Zcchc10 (GeneID 67966)	2	79	42.4	inactive
Zcchc10 (GeneID 67966)	3	71.1	100	inactive
Or4g17 (GeneID 258379)	1	56	52.1	inactive
Or4g17 (GeneID 258379)	2	129	68.3	active
Or4g17 (GeneID 258379)	3	88.9	95.3	inactive
Or8b46 (GeneID 258807)	1	99	60.4	inactive
Or8b46 (GeneID 258807)	2	65.4	75.2	inactive
Or8b46 (GeneID 258807)	3	71.1	91.5	inactive
Ankrd46 (GeneID 68839)	1	71	67.4	inactive
Ankrd46 (GeneID 68839)	2	61.6	89.8	inactive
Ankrd46 (GeneID 68839)	3	107	80.3	inactive
Tmem150b (GeneID 330460)	1	83.3	88.8	inactive
Tmem150b (GeneID 330460)	2	122	63.5	active
Tmem150b (GeneID 330460)	3	208	159	active
Emc8 (GeneID 18117)	1	36.9	24.3	inactive
Emc8 (GeneID 18117)	2	23.9	29.2	inactive
Emc8 (GeneID 18117)	3	52.6	72.9	inactive
Ncapg2 (GeneID 76044)	1	37.9	23.9	inactive
Ncapg2 (GeneID 76044)	2	99.8	102	inactive
Ncapg2 (GeneID 76044)	3	140	112	active
Cd300ld3 (GeneID 382551)	1	194	77.4	active
Cd300ld3 (GeneID 382551)	2	71.6	71.8	inactive
Cd300ld3 (GeneID 382551)	3	105	79.2	inactive
Ap4m1 (GeneID 11781)	1	101	93.4	inactive
Ap4m1 (GeneID 11781)	2	87	81.6	inactive
Ap4m1 (GeneID 11781)	3	88	72.5	inactive
Or2h2 (GeneID 258469)	1	56.9	64.5	inactive
Or2h2 (GeneID 258469)	2	24.8	46.8	inactive
Or2h2 (GeneID 258469)	3	89.4	95	inactive
Isg20l2 (GeneID 229504)	1	47.5	45.7	inactive
Isg20l2 (GeneID 229504)	2	57.8	70	inactive
Isg20l2 (GeneID 229504)	3	76.3	86.4	inactive
Slc67a1 (GeneID 18400)	1	104	93	inactive
Slc67a1 (GeneID 18400)	2	62.3	69.5	inactive
Slc67a1 (GeneID 18400)	3	106	90.2	inactive
Prpf18 (GeneID 67229)	1	93.4	60.9	inactive
Prpf18 (GeneID 67229)	2	38.7	61.8	inactive
Prpf18 (GeneID 67229)	3	74.6	71.9	inactive
H4c14 (GeneID 97122)	1	97.8	33.1	inactive
H4c14 (GeneID 97122)	2	90.5	110	inactive
H4c14 (GeneID 97122)	3	87.8	72.5	inactive
Chn2 (GeneID 69993)	1	176	146	active
Chn2 (GeneID 69993)	2	111	97.2	inactive
Chn2 (GeneID 69993)	3	70.7	81.5	inactive
Arl1 (GeneID 104303)	1	76.9	79.8	inactive
Arl1 (GeneID 104303)	2	113	88.6	inactive
Arl1 (GeneID 104303)	3	34.5	41.6	inactive
Pmvk (GeneID 68603)	1	67.8	123	inactive
Pmvk (GeneID 68603)	2	84.7	79.5	inactive
Fbxo16 (GeneID 50759)	1	66.9	72.5	inactive
Fbxo16 (GeneID 50759)	2	80.1	54.2	inactive
Fbxo16 (GeneID 50759)	3	84.9	75.7	inactive
Sik3 (GeneID 70661)	1	127	98.9	active
Sik3 (GeneID 70661)	2	90.8	89.6	inactive
Sik3 (GeneID 70661)	3	61.1	46.9	inactive
Ager (GeneID 11596)	1	63.8	86.3	inactive
Ager (GeneID 11596)	2	129	43.8	active
Ager (GeneID 11596)	3	90.4	68.7	inactive
Cnpy2 (GeneID 56530)	1	98.4	90.4	inactive
Cnpy2 (GeneID 56530)	2	120	101	active
Cnpy2 (GeneID 56530)	3	103	58.8	inactive
